No constants are given. Whether binding was seen depends on the method and setting. Binding seen in cells or lysates may run through a third protein. These calls come from enrichment with a bait or labelling near it, and not all partners need be listed. For some of these results: Sequences can lack the tags named with a protein.
T1: TAP-tagged CD2BP2 (UniProt O95400)
T1 sequence: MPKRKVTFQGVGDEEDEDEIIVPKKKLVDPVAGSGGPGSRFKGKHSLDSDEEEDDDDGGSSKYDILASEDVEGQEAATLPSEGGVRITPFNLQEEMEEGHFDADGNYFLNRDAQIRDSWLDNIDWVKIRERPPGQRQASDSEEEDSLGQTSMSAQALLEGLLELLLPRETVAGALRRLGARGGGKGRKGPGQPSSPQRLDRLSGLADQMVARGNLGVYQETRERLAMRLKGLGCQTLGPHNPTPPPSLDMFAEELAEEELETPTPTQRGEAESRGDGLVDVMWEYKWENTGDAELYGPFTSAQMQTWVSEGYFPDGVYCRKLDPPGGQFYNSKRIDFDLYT

T2: TAP-tagged AAR2 (UniProt Q9Y312)
T2 sequence: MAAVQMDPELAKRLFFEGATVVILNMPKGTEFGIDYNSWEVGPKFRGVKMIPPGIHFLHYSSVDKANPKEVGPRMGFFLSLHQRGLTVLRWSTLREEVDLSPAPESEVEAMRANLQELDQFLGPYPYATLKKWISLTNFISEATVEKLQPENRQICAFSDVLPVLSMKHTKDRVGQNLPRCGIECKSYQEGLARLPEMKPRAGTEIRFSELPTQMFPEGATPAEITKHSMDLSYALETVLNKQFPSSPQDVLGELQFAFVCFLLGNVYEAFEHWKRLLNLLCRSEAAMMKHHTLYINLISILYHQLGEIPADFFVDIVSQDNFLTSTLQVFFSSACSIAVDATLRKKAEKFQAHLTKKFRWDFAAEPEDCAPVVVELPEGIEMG

T3: EFTUD2-FLAG (UniProt Q15029)
T3 sequence: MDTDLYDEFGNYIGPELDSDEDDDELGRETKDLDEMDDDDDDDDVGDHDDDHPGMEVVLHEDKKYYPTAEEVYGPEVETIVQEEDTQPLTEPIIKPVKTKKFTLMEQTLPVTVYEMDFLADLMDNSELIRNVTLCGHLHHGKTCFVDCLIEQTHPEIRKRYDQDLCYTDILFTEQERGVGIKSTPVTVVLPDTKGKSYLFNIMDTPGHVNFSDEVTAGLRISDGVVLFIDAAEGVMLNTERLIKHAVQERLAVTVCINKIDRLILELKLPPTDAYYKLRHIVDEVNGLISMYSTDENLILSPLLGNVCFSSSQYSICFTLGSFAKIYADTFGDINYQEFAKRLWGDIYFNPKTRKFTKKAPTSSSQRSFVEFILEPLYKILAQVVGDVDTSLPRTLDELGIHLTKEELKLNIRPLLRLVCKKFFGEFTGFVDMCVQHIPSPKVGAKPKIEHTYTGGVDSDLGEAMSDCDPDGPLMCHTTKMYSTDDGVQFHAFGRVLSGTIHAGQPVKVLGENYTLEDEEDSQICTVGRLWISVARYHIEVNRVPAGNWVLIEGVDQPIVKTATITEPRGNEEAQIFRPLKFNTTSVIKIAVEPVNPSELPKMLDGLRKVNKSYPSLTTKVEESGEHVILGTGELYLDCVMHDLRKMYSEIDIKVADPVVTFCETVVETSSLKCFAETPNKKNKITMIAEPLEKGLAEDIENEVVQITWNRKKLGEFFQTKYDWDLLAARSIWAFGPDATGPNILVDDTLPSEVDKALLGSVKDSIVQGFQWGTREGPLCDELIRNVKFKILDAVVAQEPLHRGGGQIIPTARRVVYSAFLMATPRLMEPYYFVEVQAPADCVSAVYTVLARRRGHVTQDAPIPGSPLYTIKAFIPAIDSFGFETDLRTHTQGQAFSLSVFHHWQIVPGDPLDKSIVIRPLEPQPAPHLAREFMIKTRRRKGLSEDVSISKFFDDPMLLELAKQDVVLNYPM

T4: TAP-tagged ZNHIT2 (human) (UniProt Q9UHR6)
T4 sequence: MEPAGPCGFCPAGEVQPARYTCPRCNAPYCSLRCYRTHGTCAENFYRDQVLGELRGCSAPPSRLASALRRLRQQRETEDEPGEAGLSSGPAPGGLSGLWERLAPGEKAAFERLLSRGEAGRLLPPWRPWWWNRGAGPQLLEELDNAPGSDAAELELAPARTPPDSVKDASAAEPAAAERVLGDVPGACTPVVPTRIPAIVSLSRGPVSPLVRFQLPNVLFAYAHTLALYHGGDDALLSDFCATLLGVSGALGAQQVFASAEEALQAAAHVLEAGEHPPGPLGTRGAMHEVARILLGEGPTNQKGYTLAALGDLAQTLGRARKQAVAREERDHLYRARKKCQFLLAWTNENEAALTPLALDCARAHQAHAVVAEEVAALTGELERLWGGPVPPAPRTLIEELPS

T5: TAP-tagged SLC7A6OS (UniProt Q96CW6)
T5 sequence: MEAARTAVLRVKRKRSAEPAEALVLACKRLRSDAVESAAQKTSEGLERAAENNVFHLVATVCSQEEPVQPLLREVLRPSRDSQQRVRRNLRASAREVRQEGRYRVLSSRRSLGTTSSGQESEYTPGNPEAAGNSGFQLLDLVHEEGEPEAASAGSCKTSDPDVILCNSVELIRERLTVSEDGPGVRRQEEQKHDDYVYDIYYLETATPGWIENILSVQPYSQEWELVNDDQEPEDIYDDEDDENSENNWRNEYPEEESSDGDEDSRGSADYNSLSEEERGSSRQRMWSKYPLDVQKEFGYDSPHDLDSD

B1: TBC1D7, Q9P0N9 1-293 (protein)
chain: MTEDSQRNFRSVYYEKVGFRGVEEKKSLEILLKDDRLDTEKLCTFSQRFPLPSMYRALVWKVLLGILPPHHESHAKVMMYRKEQYLDVLHALKVVRFVSDATPQAEVYLRMYQLESGKLPRSPSFPLEPDDEVFLAIAKAMEEMVEDSVDCYWITRRFVNQLNTKYRDSLPQLPKAFEQYLNLEDGRLLTHLRMCSAAPKLPYDLWFKRCFAGCLPESSLQRVWDKVVSGSCKILVFVAVEILLTFKIKVMALNSAEKITKFLENIPQDSSDAIVSKAIDLWHKHCGTPVHSS
B2: ZNHIT2 (protein, UniProt Q9UHR6 1-403)
chain: T4 sequence
B3: SLC7A6OS (protein, UniProt Q96CW6 1-309)
chain: T5 sequence
B4: EAPP (protein, UniProt Q56P03 1-285)
chain: MNRLPDDYDPYAVEEPSDEEPALSSSEDEVDVLLHGTPDQKRKLIRECLTGESESSSEDEFEKEMEAELNSTMKTMEDKLSSLGTGSSSGNGKVATAPTRYYDDIYFDSDSEDEDRAVQVTKKKKKKQHKIPTNDELLYDPEKDNRDQAWVDAQRRGYHGLGPQRSRQQQPVPNSDAVLNCPACMTTLCLDCQRHESYKTQYRAMFVMNCSINKEEVLRYKASENRKKRRVHKKMRSNREDAAEKAETDVEEIYHPVMCTECSTEVAVYDKDEVFHFFNVLASHS
B5: SNRNP40 (protein, UniProt Q96DI7 1-357)
chain: MIEQQKRKGPELPLVPVKRQRHELLLGAGSGPGAGQQQATPGALLQAGPPRCSSLQAPIMLLSGHEGEVYCCKFHPNGSTLASAGFDRLILLWNVYGDCDNYATLKGHSGAVMELHYNTDGSMLFSASTDKTVAVWDSETGERVKRLKGHTSFVNSCYPARRGPQLVCTGSDDGTVKLWDIRKKAAIQTFQNTYQVLAVTFNDTSDQIISGGIDNDIKVWDLRQNKLTYTMRGHADSVTGLSLSSEGSYLLSNAMDNTVRVWDVRPFAPKERCVKIFQGNVHNFEKNLLRCSWSPDGSKIAAGSADRFVYVWDTTSRRILYKLPGHAGSINEVAFHPDEPIIISASSDKRLYMGEIQ

Key:
TAP-tagged TSC2, P49815 = experiment: affinity purification with mass spectrometry; TAP-MS: TAP-tagged bait induced with 3 uM ponasterone A for 48 h in stable EcR 293 cells; IgG sepharose, TEV cleavage, calmodulin sepharose, LC-MS/MS; soluble and chromatin fractions purified separately, the fraction is not told for these hits; details: remark: other sources report otherwise
TAP-tagged CD2BP2 = molecular target: T1, TAP-tagged CD2BP2; experiment: as above
TAP-tagged AAR2 = molecular target: T2, TAP-tagged AAR2; experiment: as above
PRPF8-FLAG = PRPF8-FLAG (UniProt Q6P2Q9); experiment: affinity purification with mass spectrometry; triple SILAC: FLAG-tagged bait in HEK 293 cells with control siRNA (medium) or siRNA against ZNHIT2 or RUVBL2 (heavy), untransfected cells (light) as control; anti-FLAG M2 magnetic beads, lysis buffer with 100 mM KCl and 0.1% NP-40; MaxQuant
EFTUD2-FLAG = molecular target: T3, EFTUD2-FLAG; experiment: as above
[1] = molecular target: T4, TAP-tagged ZNHIT2 (human); experiment: affinity purification with mass spectrometry; TAP-MS: TAP-tagged bait induced with 3 uM ponasterone A for 48 h in stable EcR 293 cells; IgG sepharose, TEV cleavage, calmodulin sepharose, LC-MS/MS; soluble and chromatin fractions purified separately, the fraction is not told for these hits
TAP-tagged SLC7A6OS = molecular target: T5, TAP-tagged SLC7A6OS; experiment: as above

Binder	binding (TAP-tagged CD2BP2)	binding (TAP-tagged AAR2)	binding (PRPF8-FLAG)	further results
B1				binding (TAP-tagged TSC2, P49815): binds
B2	binds	binds	binds	binding (EFTUD2-FLAG): binds
B3	binds	binds		
B4				binding [1]: binds; binding (TAP-tagged SLC7A6OS): binds
B5			binds	

Reference: publication PMC5460035
